Data published in the supplement of paper PMC10849652.
This is one part of the list.

Sequences of proteins named here, by UniProt entry; tags and fusion partners are left off. A change or cut given only in a name is not applied to a line headed by its entry.
UniProt Q13547, whole entry, looked up: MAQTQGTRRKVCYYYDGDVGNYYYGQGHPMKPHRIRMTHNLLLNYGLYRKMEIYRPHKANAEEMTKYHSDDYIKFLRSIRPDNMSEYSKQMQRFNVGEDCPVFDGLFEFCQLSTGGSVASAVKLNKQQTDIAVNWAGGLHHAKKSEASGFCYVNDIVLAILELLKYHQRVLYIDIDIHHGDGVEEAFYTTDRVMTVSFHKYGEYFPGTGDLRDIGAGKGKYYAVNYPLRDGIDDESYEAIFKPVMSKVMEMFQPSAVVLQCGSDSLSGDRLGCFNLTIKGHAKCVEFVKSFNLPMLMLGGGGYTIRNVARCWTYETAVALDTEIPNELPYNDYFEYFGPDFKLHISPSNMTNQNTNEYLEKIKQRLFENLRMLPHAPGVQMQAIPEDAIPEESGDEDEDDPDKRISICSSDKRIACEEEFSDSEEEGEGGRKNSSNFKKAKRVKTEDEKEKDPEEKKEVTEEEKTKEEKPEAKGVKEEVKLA
UniProt Q9UBP9: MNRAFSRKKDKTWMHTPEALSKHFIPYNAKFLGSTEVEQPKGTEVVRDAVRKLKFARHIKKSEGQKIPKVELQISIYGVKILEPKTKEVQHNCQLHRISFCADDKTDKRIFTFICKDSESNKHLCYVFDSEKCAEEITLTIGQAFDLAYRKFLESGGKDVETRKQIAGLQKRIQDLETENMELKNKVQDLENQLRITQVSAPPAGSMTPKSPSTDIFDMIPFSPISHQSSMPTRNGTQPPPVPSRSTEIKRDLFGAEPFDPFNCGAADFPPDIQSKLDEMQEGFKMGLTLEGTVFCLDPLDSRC
UniProt A4D1E9: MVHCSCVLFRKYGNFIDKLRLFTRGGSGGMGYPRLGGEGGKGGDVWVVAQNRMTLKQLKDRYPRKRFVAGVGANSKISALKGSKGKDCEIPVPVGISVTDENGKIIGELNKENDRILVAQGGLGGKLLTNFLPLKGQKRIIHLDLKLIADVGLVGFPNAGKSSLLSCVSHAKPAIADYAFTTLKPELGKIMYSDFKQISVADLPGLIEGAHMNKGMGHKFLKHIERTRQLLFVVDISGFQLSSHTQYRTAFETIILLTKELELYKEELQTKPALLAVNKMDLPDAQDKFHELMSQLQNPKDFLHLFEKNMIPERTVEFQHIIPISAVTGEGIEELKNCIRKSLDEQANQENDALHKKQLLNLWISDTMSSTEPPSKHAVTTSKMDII
UniProt Q13888: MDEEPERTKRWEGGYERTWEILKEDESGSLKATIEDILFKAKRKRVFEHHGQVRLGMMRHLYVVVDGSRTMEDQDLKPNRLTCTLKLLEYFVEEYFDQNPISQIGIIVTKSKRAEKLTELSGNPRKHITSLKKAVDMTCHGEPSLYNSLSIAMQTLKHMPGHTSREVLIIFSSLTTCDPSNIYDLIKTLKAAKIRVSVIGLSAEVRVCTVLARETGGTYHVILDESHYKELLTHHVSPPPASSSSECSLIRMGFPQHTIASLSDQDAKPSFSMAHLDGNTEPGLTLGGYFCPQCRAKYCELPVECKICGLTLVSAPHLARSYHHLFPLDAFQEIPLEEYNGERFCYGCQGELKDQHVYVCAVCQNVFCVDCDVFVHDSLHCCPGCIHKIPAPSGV
UniProt P52657, whole entry, looked up: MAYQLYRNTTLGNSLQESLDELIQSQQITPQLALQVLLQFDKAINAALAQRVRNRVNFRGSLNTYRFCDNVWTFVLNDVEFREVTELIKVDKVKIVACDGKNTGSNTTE
UniProt P30711: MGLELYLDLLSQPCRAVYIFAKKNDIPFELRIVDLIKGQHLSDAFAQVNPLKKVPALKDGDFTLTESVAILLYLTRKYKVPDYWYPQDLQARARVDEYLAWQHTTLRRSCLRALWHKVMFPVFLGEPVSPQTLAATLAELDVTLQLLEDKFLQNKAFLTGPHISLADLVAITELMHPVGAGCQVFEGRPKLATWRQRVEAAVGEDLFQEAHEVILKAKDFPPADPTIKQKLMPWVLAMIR
UniProt P36969, whole entry, looked up: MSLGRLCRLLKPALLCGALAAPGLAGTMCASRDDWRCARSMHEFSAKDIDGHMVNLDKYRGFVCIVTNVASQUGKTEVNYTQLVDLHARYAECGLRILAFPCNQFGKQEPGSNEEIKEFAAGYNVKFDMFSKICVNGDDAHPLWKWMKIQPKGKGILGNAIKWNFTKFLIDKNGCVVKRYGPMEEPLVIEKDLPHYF
UniProt Q99871: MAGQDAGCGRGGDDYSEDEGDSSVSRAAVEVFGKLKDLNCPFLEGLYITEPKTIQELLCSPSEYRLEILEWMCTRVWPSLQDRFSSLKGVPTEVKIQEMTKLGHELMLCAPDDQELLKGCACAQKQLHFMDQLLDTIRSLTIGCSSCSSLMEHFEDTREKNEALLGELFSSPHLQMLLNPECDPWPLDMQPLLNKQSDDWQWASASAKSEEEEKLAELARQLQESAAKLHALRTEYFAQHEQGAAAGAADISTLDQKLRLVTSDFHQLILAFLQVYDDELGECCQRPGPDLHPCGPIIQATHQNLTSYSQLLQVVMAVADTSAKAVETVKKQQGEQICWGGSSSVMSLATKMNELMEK
UniProt P16402, whole entry, looked up: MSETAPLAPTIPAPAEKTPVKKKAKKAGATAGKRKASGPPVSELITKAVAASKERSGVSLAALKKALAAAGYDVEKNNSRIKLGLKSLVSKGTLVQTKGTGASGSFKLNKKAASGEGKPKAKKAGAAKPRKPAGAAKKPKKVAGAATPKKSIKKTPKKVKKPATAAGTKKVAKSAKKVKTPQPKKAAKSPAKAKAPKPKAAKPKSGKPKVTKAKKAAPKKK
UniProt P09105: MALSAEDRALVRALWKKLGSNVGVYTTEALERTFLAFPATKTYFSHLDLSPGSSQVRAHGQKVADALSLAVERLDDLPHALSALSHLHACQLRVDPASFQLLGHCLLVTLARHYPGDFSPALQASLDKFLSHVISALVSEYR
UniProt Q92769, whole entry, looked up: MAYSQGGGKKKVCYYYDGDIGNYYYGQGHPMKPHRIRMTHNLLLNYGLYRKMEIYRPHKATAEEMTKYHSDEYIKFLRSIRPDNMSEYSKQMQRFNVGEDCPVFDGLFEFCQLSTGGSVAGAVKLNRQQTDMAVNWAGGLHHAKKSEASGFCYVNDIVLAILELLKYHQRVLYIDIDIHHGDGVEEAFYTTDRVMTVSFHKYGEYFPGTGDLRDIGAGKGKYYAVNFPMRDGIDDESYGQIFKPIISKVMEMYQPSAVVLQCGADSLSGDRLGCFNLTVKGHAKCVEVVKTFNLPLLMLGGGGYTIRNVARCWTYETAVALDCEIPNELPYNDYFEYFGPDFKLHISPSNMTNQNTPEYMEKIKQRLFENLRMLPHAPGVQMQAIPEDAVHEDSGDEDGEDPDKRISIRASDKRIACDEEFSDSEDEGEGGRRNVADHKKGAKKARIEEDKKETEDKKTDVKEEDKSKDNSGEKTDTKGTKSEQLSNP
UniProt P51610: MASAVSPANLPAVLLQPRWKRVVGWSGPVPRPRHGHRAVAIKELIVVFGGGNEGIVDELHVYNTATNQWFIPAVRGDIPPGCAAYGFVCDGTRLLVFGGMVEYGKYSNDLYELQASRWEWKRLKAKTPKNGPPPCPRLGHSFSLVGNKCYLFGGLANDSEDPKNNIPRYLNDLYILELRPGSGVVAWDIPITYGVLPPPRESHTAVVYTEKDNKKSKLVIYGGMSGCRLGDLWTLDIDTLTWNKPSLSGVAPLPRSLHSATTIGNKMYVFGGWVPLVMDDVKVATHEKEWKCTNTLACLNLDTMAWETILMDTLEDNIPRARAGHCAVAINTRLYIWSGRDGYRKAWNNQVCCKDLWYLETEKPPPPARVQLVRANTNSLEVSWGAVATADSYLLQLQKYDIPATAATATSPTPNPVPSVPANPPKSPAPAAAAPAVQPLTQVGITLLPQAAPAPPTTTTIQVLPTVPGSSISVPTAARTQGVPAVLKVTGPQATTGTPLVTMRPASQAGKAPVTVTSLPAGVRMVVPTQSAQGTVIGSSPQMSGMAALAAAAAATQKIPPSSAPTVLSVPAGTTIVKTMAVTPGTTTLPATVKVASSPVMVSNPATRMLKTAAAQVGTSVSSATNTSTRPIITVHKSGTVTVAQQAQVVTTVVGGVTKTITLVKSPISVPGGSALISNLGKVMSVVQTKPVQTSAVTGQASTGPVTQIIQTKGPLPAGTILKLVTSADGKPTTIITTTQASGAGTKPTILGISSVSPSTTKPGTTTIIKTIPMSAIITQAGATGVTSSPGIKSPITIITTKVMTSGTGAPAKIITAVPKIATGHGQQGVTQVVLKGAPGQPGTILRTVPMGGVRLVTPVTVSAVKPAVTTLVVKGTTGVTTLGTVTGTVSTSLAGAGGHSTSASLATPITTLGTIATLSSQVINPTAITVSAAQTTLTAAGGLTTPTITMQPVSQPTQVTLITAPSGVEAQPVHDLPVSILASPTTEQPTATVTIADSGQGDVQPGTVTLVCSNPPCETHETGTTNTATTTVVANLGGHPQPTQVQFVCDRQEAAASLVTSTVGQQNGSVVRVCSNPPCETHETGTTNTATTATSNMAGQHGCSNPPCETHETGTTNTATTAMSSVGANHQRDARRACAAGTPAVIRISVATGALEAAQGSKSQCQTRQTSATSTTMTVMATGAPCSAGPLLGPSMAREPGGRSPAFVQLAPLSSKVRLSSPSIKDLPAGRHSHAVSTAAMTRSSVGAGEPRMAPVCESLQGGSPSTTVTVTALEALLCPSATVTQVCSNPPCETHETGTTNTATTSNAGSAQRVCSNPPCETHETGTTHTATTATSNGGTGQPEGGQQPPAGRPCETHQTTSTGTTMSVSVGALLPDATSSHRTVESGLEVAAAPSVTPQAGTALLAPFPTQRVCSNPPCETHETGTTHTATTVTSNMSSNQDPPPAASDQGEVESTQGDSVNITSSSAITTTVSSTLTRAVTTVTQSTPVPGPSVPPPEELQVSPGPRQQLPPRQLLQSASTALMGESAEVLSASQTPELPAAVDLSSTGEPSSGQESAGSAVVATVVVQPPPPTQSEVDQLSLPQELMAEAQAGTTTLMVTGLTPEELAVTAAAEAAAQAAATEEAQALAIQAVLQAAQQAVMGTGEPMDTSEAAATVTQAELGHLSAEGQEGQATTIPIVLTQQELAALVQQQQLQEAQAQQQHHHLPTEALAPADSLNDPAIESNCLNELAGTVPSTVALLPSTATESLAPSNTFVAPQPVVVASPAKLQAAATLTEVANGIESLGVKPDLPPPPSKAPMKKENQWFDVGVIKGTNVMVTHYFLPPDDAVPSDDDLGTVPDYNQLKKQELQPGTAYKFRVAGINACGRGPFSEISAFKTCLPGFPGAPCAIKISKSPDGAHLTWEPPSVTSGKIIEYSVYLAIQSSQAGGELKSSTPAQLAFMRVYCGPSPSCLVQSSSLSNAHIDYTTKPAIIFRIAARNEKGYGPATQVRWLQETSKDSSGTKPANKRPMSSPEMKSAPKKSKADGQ
UniProt P29084: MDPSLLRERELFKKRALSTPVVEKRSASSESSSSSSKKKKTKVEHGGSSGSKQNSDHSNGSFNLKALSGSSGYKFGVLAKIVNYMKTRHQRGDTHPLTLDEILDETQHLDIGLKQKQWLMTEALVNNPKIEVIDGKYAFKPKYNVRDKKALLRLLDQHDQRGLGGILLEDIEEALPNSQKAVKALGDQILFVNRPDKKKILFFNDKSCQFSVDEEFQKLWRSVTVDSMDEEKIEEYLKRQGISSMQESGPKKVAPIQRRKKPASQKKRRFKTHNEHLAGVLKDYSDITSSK
UniProt Q8WUA4: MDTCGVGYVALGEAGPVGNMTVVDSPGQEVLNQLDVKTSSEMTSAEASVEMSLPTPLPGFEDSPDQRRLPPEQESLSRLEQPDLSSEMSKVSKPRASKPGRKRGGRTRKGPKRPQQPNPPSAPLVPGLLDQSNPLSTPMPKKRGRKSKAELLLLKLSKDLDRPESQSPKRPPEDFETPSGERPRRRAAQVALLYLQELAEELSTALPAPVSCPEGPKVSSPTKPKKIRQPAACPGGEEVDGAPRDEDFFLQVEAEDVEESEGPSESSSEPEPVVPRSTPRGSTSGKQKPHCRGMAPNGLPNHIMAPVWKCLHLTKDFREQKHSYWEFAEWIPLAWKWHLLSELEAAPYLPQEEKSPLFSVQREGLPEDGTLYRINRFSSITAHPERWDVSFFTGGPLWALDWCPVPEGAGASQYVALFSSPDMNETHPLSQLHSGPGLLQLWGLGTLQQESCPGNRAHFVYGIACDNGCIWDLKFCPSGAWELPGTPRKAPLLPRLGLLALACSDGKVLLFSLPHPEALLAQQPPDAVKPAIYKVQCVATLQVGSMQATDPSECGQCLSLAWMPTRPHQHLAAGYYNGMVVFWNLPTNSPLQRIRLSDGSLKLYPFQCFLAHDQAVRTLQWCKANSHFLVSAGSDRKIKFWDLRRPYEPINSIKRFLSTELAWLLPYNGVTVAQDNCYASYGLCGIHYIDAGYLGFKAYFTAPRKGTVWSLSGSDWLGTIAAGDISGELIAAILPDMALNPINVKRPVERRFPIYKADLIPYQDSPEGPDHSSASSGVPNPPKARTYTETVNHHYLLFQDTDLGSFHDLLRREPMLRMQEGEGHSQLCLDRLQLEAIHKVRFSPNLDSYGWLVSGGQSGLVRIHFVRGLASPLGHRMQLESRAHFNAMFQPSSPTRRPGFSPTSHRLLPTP

Legend:
Assay in all cases: log2 fold change, soluble protein after heating vs DMSO (PISA); higher = thermal stabilisation; K562 lysate, 10 uM; active = over 0.2 and 3.5 SD of the protein, either way, in both replicates (recomputed)
erlotinib = compound: C#Cc1cccc(Nc2ncnc3cc(OCCOC)c(OCCOC)cc23)c1 [erlotinib]
How it was run: (§1)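 Values give the log-two fold change in thermal stability against solvent controls, from duplicates. Crude K562 extract at 1 mg/mL protein, made by dounce homogenisation in PBS pH 7.4 with 1 mM MgCl2, was treated with 10 μM compound for 30 min. After 3 min heating across 48°C-58°C, aliquots were pooled, adjusted to 0.5% NP-40 at 4°C and centrifuged at 21,000xg for 90 min. The supernatant was measured by TMTpro 16plex LC-MS/MS with channel sums equalised.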

[1] = compound: C/C(=N\NC(=O)C1=CC(=CC=C1)S(=O)(=O)N2CCOCC2)/C3=C(C=CC(=C3)Cl)O
How it was run: as §1

[2] = compound: C1=CC(=CC=C1C2=NC3=C(N2)C=C(C=C3)C(=O)N)OC4=CC=C(C=C4)Cl
How it was run: as §1

[3] = compound: C1=CC2=C(C=CC(=C2)/C=C\3/C(=O)NC(=NCC4=CC=CS4)S3)N=C1
How it was run: as §1

[4] = compound: C1=CC2=NC=CN=C2C=C1/C=C/3\C(=O)NC(=O)S3
How it was run: as §1

[5] = compound: C1=CC=C(C=C1)C2=NC(=C(N2)C3=CC=NC=C3)C4=CC(=C(C=C4)Cl)O
How it was run: as §1

[6] = compound: C1=CC=C2C(=C1)C3=NNC4=CC=CC(=C43)C2=O
How it was run: as §1

[7] = compound: C1CCN(C1)C(=O)NC2=CC=CC(=C2)NC3=NC=C(C(=N3)NCCC4=CN=CN4)Br
How it was run: as §1

[8] = compound: C1CN(CCC1(CC2=CC=C(C=C2)Cl)N)C3=NC=NC4=C3C=CN4
How it was run: as §1

IRAK-1-4 Inhibitor I = compound: C1COCCN1CCN2C3=CC=CC=C3N=C2NC(=O)C4=CC(=CC=C4)[N+](=O)[O-] [IRAK-1-4 Inhibitor I]
How it was run: as §1

Measured: log2 fold change

GSTK1 (UniProt Q9Y2Q3)
inactive: erlotinib -0.025 | [1] -0.066 | [2] -0.001 | [3] -0.019 | [4] -0.018 | [5] -0.038 | [6] -0.021 | [7] -0.01 | [8] 0.076 | IRAK-1-4 Inhibitor I 0.002

HAUS6 (UniProt Q7Z4H7)
inactive: erlotinib 0.031 | [1] 0.102 | [2] -0.038 | [3] -0.035 | [4] -0.008 | [5] 0.019 | [6] 0.024 | [7] -0.015 | [8] 0.039 | IRAK-1-4 Inhibitor I 0.017

HDAC1 (UniProt Q13547)
inactive: erlotinib 0 | [1] -0.046 | [2] -0.012 | [3] 0.015 | [4] 0.003 | [5] -0.013 | [6] -0.024 | [7] -0.014 | [8] -0.036 | IRAK-1-4 Inhibitor I -0.043

GULP1 (UniProt Q9UBP9)
inactive: erlotinib 0.063 | [1] 0.149 | [2] -0.065 | [3] -0.034 | [4] 0.232 | [5] 0.036 | [6] -0.101 | [7] -0.03 | [8] -0.022 | IRAK-1-4 Inhibitor I 0.028

GTPBP10 (UniProt A4D1E9)
inactive: erlotinib 0.053 | [1] -0.494 | [2] -0.002 | [3] 0.003 | [4] 0.066 | [5] -0.006 | [6] -0.091 | [7] -0.089 | [8] 0.045 | IRAK-1-4 Inhibitor I -0.005

GTF2H2 (UniProt Q13888)
inactive: erlotinib 0.09 | [1] 0.049 | [2] 0.013 | [3] -0.009 | [4] -0.007 | [5] 0.087 | [6] 0.008 | [7] 0.015 | [8] 0.037 | IRAK-1-4 Inhibitor I 0.028

HAGHL isoform 2 (UniProt Q6PII5)
inactive: erlotinib -0.006 | [1] -0.043 | [2] 0.026 | [3] 0.085 | [4] -0.097 | [5] 0.037 | [6] 0.034 | [7] -0.039 | [8] 0.05 | IRAK-1-4 Inhibitor I -0.055

GTF2A2 (UniProt P52657)
inactive: erlotinib 0.016 | [1] -0.025 | [2] 0.019 | [3] -0.006 | [4] 0.009 | [5] -0.017 | [6] 0.029 | [7] -0.006 | [8] -0.01 | IRAK-1-4 Inhibitor I 0.017

GSTT1 (UniProt P30711)
inactive: erlotinib -0.01 | [1] -0.098 | [2] 0.09 | [3] 0.021 | [4] -0.038 | [5] -0.009 | [6] 0.018 | [7] 0.031 | [8] 0.037 | IRAK-1-4 Inhibitor I -0.014

GSS (UniProt P48637)
inactive: erlotinib -0.016 | [1] 0.002 | [2] 0.036 | [3] 0.006 | [4] -0.007 | [5] -0.003 | [6] 0.037 | [7] 0.032 | [8] 0.001 | IRAK-1-4 Inhibitor I -0.001

GPX4 (UniProt P36969)
inactive: erlotinib 0.02 | [1] 0.051 | [2] -0.037 | [3] -0.016 | [4] 0.04 | [5] -0.029 | [6] -0.06 | [7] 0.024 | [8] 0.021 | IRAK-1-4 Inhibitor I 0.012

HAUS7 isoform 2 (UniProt Q99871)
inactive: erlotinib 0.104 | [1] 0.106 | [2] 0.028 | [3] -0.005 | [4] 0 | [5] 0.048 | [6] -0.006 | [7] -0.011 | [8] 0.164 | IRAK-1-4 Inhibitor I -0.028

HBS1L isoform 2 (UniProt Q9Y450)
inactive: erlotinib 0.014 | [1] -0.052 | [2] 0.011 | [3] 0.033 | [4] -0.041 | [5] -0.008 | [6] -0.014 | [7] -0.002 | [8] 0.035 | IRAK-1-4 Inhibitor I 0.004

GXYLT1 (UniProt Q4G148)
inactive: erlotinib -0.09 | [1] 0.016 | [2] -0.039 | [3] 0.085 | [4] -0.075 | [5] -0.052 | [6] -0.052 | [7] -0.044 | [8] 0.081 | IRAK-1-4 Inhibitor I 0.054

GYPA (UniProt P02724)
inactive: erlotinib -0.109 | [1] -0.107 | [2] 0.13 | [3] 0.061 | [4] 0.059 | [5] 0.023 | [6] 0.048 | [7] -0.004 | [8] 0.043 | IRAK-1-4 Inhibitor I 0.017

HCCS (UniProt P53701)
inactive: erlotinib -0.033 | [1] 0.062 | [2] -0.055 | [3] -0.006 | [4] -0.003 | [5] -0.023 | [6] -0.03 | [7] 0.024 | [8] 0.004 | IRAK-1-4 Inhibitor I 0.05

H1-3 (UniProt P16402)
inactive: erlotinib -0.021 | [1] -0.035 | [2] -0.059 | [3] -0.004 | [4] -0.002 | [5] 0.037 | [6] 0.071 | [7] 0.035 | [8] -0.001 | IRAK-1-4 Inhibitor I 0.024

HBQ1 (UniProt P09105)
inactive: erlotinib -0.027 | [1] 0.064 | [2] -0.038 | [3] 0.022 | [4] -0.048 | [5] -0.062 | [6] -0.018 | [7] -0.007 | [8] 0.044 | IRAK-1-4 Inhibitor I -0.026

HACE1 (UniProt Q8IYU2)
inactive: erlotinib 0.033 | [1] 0.083 | [2] 0.106 | [3] -0.019 | [4] 0.017 | [5] -0.189 | [6] -0.174 | [7] -0.069 | [8] 0.055 | IRAK-1-4 Inhibitor I 0.032

HDHD2 (UniProt Q9H0R4)
inactive: erlotinib -0.001 | [1] -0.046 | [2] -0.002 | [3] 0.037 | [4] 0.009 | [5] -0.047 | [6] 0.033 | [7] 0.02 | [8] -0.025 | IRAK-1-4 Inhibitor I 0.011

HCLS1 (UniProt P14317)
inactive: erlotinib -0.049 | [1] 0.014 | [2] -0.001 | [3] 0.02 | [4] -0.001 | [5] 0.044 | [6] -0.009 | [7] 0.013 | [8] -0.021 | IRAK-1-4 Inhibitor I 0

HDAC2 (UniProt Q92769)
inactive: erlotinib -0.02 | [1] 0.021 | [2] -0.001 | [3] 0.012 | [4] -0.013 | [5] -0.004 | [6] -0.009 | [7] -0.013 | [8] -0.001 | IRAK-1-4 Inhibitor I -0.017

Copied from the listing (7 entries):
HCCS (UniProt P53701)
inactive: erlotinib -0.033 | [1] 0.062 | [2] -0.055 | [3] -0.006 | [4] -0.003 | [5] -0.023 | [6] -0.03 | [7] 0.024 | [8] 0.004 | IRAK-1-4 Inhibitor I 0.05

H1-3 (UniProt P16402)
inactive: erlotinib -0.021 | [1] -0.035 | [2] -0.059 | [3] -0.004 | [4] -0.002 | [5] 0.037 | [6] 0.071 | [7] 0.035 | [8] -0.001 | IRAK-1-4 Inhibitor I 0.024

HBQ1 (UniProt P09105)
inactive: erlotinib -0.027 | [1] 0.064 | [2] -0.038 | [3] 0.022 | [4] -0.048 | [5] -0.062 | [6] -0.018 | [7] -0.007 | [8] 0.044 | IRAK-1-4 Inhibitor I -0.026

HACE1 (UniProt Q8IYU2)
inactive: erlotinib 0.033 | [1] 0.083 | [2] 0.106 | [3] -0.019 | [4] 0.017 | [5] -0.189 | [6] -0.174 | [7] -0.069 | [8] 0.055 | IRAK-1-4 Inhibitor I 0.032

HDHD2 (UniProt Q9H0R4)
inactive: erlotinib -0.001 | [1] -0.046 | [2] -0.002 | [3] 0.037 | [4] 0.009 | [5] -0.047 | [6] 0.033 | [7] 0.02 | [8] -0.025 | IRAK-1-4 Inhibitor I 0.011

HCLS1 (UniProt P14317)
inactive: erlotinib -0.049 | [1] 0.014 | [2] -0.001 | [3] 0.02 | [4] -0.001 | [5] 0.044 | [6] -0.009 | [7] 0.013 | [8] -0.021 | IRAK-1-4 Inhibitor I 0

HDAC2 (UniProt Q92769)
inactive: erlotinib -0.02 | [1] 0.021 | [2] -0.001 | [3] 0.012 | [4] -0.013 | [5] -0.004 | [6] -0.009 | [7] -0.013 | [8] -0.001 | IRAK-1-4 Inhibitor I -0.017

Going on with the list.

HCFC1 isoform 4 (UniProt P51610)
inactive: erlotinib 0.003 | [1] -0.028 | [2] 0.038 | [3] -0.001 | [4] -0.017 | [5] -0.005 | [6] 0.037 | [7] -0.006 | [8] 0.004 | IRAK-1-4 Inhibitor I 0.02

HAUS1 (UniProt Q96CS2)
inactive: erlotinib 0.008 | [1] -0.014 | [2] 0.006 | [3] -0.005 | [4] 0.081 | [5] 0 | [6] -0.004 | [7] 0.002 | [8] -0.02 | IRAK-1-4 Inhibitor I -0.005

GTF2E2 (UniProt P29084)
inactive: erlotinib -0.081 | [1] -0.064 | [2] -0.058 | [3] -0.033 | [4] -0.041 | [5] -0.011 | [6] -0.017 | [7] 0 | [8] 0.017 | IRAK-1-4 Inhibitor I -0.023

GTF3C2 (UniProt Q8WUA4)
inactive: erlotinib 0.019 | [1] 0.042 | [2] -0.006 | [3] 0.018 | [4] -0.048 | [5] 0.03 | [6] -0.03 | [7] -0.004 | [8] 0.03 | IRAK-1-4 Inhibitor I 0.041

H1FX (UniProt Q92522)
inactive: erlotinib -0.018 | [1] 0.007 | [2] -0.033 | [3] 0.019 | [4] -0.056 | [5] -0.004 | [6] 0.071 | [7] 0.018 | [8] -0.02 | IRAK-1-4 Inhibitor I -0.022
